The target of this test is T1, Recombinant His-tagged Endocan (UniProt Q9NQ30).
T1 sequence: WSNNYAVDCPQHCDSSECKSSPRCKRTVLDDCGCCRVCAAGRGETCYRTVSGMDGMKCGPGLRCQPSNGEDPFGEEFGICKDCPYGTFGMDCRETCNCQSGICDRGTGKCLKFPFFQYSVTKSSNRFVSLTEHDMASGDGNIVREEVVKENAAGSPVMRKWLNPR
In words: affinity purification with mass spectrometry.

By UniProt entry, the sequences of proteins in these tests, tags left out. Residues count along the entry.
UniProt P20701, residues 26-1170: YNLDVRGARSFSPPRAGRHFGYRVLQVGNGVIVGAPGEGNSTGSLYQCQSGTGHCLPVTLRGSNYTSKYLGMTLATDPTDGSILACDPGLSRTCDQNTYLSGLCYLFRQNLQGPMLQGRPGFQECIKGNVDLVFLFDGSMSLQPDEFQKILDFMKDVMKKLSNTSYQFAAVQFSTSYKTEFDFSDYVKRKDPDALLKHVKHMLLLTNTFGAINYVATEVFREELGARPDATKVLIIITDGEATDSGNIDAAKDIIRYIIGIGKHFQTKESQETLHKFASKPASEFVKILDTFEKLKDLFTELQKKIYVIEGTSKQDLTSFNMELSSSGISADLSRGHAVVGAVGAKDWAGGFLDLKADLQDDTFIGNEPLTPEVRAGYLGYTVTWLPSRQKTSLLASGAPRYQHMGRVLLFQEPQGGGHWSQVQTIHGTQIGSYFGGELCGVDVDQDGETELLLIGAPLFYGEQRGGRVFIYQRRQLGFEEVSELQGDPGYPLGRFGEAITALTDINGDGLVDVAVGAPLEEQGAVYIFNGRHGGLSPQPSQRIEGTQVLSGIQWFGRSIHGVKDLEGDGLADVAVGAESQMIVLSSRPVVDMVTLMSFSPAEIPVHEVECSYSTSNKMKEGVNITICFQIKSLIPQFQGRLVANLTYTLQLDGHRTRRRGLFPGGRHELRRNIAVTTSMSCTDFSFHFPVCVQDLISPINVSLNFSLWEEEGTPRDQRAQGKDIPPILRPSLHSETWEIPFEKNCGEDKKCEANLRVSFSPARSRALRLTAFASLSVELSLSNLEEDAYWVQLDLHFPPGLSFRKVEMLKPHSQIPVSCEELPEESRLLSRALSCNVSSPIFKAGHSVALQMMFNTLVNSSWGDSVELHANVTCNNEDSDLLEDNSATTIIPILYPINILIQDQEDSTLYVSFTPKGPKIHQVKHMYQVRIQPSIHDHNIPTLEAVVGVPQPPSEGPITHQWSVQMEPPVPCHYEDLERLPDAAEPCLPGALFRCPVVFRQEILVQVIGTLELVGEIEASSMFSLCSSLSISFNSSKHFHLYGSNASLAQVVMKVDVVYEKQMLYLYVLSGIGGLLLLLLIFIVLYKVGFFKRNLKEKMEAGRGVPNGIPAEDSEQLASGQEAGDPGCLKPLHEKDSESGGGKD
UniProt P16234, residues 24-1089: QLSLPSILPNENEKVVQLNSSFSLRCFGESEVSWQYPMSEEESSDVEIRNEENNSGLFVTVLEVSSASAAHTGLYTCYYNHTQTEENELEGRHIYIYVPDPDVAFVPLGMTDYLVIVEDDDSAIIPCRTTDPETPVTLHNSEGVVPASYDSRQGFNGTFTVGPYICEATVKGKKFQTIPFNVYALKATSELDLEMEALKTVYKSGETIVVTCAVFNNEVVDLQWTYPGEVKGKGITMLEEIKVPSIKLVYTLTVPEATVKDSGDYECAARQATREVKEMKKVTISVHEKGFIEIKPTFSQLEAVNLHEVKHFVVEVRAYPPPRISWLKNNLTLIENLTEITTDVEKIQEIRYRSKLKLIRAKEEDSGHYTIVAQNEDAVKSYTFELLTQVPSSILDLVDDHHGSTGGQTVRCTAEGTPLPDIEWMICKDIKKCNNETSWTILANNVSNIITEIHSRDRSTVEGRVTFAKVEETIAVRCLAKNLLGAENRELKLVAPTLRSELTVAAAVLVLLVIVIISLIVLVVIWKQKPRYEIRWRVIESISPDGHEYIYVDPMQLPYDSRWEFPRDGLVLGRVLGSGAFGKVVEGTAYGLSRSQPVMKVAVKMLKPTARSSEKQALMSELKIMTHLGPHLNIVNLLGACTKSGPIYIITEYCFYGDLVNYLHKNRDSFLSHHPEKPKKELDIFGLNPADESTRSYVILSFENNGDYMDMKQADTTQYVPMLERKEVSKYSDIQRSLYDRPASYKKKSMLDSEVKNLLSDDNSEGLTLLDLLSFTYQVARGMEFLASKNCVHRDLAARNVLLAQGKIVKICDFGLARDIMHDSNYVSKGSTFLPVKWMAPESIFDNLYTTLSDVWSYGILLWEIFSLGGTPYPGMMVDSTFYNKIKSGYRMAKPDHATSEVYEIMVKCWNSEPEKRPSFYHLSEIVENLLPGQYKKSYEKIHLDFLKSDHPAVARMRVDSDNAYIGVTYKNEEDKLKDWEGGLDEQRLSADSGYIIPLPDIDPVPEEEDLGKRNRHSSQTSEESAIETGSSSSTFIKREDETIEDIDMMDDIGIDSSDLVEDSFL

Results are given in words; binding and its absence hold for the method and conditions named. In cells and extracts the contact can be indirect. Here binding means that the protein was enriched with, or labelled near, the bait; the list need not be complete. A no says only that the protein was not detected with the bait. Tags and fused reporters may be left off the sequences shown.

“CD11a integrin, endogenous in glioblastoma cells (from UniProt P20701 26-1170) (receptor)”: the binding entry is given as “no binding”. Consider “PDGFRA receptor, endogenous in patient-derived glioblastoma cells (from UniProt P16234 24-1089)”, for which the binding entry was “binds”.

(Values after doi:10.1101/2020.10.12.335091.)
